Results are given in words; binding and its absence hold for the method and conditions named. Binding seen in cells or lysates may run through a third protein. Some binding calls cover weakened binding; strength is not graded here.

Protein sequences, listed by entry. Tags and fused reporters are not part of them. Residues count along the entry.
UniProt P21926, residues 2-228: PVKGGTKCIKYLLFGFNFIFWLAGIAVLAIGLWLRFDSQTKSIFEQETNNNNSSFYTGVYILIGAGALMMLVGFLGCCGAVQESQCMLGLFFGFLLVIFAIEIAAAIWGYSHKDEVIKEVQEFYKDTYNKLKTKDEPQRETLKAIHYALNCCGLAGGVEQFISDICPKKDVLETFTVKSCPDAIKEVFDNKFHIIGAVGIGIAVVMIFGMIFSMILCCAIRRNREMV

Assay [1] addresses tetraspanin protein CD9 of human SCC cells (human) (UniProt P21926). The experiment in a line: DSP or DTSSP cross-linking of surface-labelled cells, co-immunoprecipitation.
Assay [2] concerns the target T1, tetraspanin protein CD9 of murine LL/2 cells (murine) (UniProt P40240).
T1 sequence (looked up): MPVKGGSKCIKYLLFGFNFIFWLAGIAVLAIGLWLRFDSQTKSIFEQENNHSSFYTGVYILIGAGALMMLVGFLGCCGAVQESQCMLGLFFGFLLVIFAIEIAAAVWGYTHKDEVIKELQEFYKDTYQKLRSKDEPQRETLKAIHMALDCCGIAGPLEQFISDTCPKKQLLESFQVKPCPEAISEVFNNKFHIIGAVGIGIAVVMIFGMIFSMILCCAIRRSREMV
The description is as above.

B1: colligin/Hsp47 on the surface of human carcinoma cells (protein, UniProt P50454 19-418, looked up)
chain: AEVKKPAAAAAPGTAEKLSPKAATLAERSAGLAFSLYQAMAKDQAVENILVSPVVVASSLGLVSLGGKATTASQAKAVLSAEQLRDEEVHAGLGELLRSLSNSTARNVTWKLGSRLYGPSSVSFADDFVRSSKQHYNCEHSKINFRDKRSALQSINEWAAQTTDGKLPEVTKDVERTDGALLVNAMFFKPHWDEKFHHKMVDNRGFMVTRSYTVGVMMMHRTGLYNYYDDEKEKLQIVEMPLAHKLSSLIILMPHHVEPLERLEKLLTKEQLKIWMGKMQKKAVAISLPKGVVEVTHDLQKHLAGLGLTEAIDKNKADLSRMSGKKDLYLASVFHATAFELDTDGNPFDQDIYGREELRSPKLFYADHPFIFLVRDTQSGSLLFIGRLVRPKGDKMRDEL
Regarding B1, in assay [1], the binding entry is reported as “binds”.

B2: colligin/Hsp47 of the murine Lewis Lung Carcinoma (LL/2) cell line (protein, UniProt P19324 18-417, looked up)
chain: AEVKKPLEAAAPGTAEKLSSKATTLAERSTGLAFSLYQAMAKDQAVENILLSPLVVASSLGLVSLGGKATTASQAKAVLSAEKLRDEEVHTGLGELLRSLSNSTARNVTWKLGSRLYGPSSVSFADDFVRSSKQHYNCEHSKINFRDKRSALQSINEWASQTTDGKLPEVTKDVERTDGALLVNAMFFKPHWDEKFHHKMVDNRGFMVTRSYTVGVTMMHRTGLYNYYDDEKEKLQMVEMPLAHKLSSLIILMPHHVEPLERLEKLLTKEQLKAWMGKMQKKAVAISLPKGVVEVTHDLQKHLAGLGLTEAIDKNKADLSRMSGKKDLYLASVFHATAFEWDTEGNPFDQDIYGREELRSPKLFYADHPFIFLVRDNQSGSLLFIGRLVRPKGDKMRDEL
Turning to B2, the binding entry in assay [2] is given as “binds”.

Source of the values: patent EP1161262B1 (University of Maryland, Baltimore, dated 2008).
